Data reported in the supplement of paper PMC10849652.
This is one part of the list.

Amino acid sequences for entries named in this document (tags omitted). A change or cut given only in a name is not applied to a line headed by its entry.
UniProt Q9UBF1: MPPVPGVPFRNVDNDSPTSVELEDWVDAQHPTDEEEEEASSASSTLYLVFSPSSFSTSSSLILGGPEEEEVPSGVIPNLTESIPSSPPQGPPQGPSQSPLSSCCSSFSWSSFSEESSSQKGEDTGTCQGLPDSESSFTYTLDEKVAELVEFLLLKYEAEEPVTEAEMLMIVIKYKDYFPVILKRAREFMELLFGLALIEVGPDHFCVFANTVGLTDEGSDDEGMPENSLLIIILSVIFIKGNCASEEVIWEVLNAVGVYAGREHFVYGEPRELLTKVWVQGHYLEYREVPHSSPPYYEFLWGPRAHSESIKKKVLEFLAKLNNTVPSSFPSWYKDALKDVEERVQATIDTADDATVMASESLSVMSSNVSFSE
UniProt Q9NQ29: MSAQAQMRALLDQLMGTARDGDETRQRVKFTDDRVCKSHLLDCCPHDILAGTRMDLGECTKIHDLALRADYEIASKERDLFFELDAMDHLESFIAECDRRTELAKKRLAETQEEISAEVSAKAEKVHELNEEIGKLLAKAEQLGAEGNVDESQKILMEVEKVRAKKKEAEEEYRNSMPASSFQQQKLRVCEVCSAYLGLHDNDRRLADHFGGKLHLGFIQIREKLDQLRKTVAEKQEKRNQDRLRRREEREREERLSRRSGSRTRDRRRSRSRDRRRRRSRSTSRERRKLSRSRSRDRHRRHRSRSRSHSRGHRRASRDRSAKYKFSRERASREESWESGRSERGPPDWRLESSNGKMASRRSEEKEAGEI
UniProt Q15013: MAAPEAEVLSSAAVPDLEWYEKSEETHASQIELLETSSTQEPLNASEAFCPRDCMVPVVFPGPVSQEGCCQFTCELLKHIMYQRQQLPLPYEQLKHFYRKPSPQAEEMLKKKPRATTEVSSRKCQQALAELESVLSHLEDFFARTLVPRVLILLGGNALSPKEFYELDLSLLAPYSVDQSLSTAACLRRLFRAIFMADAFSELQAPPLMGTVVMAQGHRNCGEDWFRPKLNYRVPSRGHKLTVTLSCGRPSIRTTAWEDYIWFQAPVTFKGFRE
UniProt Q9Y6R4: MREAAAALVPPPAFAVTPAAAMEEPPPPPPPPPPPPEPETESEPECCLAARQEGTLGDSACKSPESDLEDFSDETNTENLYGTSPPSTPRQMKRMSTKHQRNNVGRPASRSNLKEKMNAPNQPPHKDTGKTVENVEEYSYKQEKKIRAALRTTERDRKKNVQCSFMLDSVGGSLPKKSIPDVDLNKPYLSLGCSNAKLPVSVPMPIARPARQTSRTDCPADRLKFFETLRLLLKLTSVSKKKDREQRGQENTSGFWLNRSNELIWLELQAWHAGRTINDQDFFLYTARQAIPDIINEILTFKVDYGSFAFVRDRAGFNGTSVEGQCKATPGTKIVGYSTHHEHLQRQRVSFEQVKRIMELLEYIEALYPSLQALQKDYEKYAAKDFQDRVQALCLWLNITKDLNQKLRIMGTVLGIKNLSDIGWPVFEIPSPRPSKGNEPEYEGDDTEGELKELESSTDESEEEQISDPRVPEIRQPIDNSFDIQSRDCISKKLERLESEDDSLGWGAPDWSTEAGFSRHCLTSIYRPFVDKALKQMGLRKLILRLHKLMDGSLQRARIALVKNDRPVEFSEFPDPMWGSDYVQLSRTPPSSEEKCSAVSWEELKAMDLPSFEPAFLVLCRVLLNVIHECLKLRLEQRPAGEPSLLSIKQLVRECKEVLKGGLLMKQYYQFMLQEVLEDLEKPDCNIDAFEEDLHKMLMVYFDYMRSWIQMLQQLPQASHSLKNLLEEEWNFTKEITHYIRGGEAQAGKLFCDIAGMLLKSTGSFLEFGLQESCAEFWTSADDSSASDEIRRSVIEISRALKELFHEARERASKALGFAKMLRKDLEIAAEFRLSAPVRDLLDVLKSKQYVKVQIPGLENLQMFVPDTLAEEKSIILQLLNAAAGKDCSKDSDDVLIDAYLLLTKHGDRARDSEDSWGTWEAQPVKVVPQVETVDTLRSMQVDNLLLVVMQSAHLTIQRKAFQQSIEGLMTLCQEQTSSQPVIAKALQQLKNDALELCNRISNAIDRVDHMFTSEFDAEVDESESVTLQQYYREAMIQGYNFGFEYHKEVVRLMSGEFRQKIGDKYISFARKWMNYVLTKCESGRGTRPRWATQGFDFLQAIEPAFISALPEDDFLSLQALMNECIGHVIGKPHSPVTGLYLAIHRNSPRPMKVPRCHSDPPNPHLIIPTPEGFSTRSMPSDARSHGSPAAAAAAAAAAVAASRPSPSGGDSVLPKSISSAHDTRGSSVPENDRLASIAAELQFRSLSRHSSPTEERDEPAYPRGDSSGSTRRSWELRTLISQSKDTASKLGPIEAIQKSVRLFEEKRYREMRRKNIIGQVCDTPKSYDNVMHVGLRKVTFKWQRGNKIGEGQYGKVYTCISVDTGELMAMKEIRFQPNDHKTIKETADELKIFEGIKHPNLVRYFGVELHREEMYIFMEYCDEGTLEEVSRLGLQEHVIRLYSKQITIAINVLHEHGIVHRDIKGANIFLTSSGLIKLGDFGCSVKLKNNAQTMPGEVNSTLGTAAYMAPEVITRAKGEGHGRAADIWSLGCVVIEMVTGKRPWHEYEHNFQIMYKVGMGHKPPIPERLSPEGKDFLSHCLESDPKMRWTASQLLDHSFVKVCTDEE
UniProt O14733: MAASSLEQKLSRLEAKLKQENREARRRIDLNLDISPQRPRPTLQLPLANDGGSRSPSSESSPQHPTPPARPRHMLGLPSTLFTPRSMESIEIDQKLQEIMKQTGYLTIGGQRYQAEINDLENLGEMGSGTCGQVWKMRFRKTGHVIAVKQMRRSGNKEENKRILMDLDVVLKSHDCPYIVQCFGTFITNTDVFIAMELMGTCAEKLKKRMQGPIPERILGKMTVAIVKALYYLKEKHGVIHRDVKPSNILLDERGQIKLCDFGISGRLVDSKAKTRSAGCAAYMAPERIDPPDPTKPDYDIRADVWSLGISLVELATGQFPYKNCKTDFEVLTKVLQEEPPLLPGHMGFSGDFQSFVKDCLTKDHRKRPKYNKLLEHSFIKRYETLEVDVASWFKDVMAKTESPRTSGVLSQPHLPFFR
UniProt P29966: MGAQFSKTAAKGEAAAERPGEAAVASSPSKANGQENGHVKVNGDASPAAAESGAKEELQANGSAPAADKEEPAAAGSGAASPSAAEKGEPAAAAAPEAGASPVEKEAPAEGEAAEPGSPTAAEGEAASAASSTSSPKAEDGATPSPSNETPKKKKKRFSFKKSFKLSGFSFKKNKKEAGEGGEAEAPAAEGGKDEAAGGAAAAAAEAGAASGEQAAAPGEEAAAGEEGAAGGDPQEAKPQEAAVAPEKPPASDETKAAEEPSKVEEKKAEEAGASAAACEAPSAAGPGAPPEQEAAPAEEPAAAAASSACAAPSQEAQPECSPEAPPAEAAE
UniProt Q86X29: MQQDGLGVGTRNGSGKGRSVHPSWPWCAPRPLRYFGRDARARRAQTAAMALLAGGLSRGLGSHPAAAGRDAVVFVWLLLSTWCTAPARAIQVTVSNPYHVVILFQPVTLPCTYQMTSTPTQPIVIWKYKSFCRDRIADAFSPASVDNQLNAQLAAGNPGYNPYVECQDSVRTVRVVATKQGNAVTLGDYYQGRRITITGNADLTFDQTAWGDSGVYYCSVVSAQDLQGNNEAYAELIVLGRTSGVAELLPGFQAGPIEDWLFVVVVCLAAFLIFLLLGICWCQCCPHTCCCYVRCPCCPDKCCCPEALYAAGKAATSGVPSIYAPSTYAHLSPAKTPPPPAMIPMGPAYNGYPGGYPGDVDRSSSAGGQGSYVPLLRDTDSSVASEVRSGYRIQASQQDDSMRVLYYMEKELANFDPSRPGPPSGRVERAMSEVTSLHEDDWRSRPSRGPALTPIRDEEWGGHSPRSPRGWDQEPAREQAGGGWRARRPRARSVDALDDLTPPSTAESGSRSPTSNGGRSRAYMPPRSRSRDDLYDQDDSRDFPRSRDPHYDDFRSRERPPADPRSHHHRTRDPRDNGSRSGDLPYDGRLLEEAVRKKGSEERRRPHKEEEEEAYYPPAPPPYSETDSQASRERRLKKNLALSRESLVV
UniProt P51884: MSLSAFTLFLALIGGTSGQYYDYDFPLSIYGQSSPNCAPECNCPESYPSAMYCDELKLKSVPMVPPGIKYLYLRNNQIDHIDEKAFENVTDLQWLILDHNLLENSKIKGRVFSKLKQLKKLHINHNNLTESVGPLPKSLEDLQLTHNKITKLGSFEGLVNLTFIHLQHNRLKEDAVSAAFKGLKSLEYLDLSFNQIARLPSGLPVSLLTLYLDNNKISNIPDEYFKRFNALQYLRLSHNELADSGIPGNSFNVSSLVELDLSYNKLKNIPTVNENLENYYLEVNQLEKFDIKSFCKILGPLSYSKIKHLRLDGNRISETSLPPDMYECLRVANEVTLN
UniProt O95819: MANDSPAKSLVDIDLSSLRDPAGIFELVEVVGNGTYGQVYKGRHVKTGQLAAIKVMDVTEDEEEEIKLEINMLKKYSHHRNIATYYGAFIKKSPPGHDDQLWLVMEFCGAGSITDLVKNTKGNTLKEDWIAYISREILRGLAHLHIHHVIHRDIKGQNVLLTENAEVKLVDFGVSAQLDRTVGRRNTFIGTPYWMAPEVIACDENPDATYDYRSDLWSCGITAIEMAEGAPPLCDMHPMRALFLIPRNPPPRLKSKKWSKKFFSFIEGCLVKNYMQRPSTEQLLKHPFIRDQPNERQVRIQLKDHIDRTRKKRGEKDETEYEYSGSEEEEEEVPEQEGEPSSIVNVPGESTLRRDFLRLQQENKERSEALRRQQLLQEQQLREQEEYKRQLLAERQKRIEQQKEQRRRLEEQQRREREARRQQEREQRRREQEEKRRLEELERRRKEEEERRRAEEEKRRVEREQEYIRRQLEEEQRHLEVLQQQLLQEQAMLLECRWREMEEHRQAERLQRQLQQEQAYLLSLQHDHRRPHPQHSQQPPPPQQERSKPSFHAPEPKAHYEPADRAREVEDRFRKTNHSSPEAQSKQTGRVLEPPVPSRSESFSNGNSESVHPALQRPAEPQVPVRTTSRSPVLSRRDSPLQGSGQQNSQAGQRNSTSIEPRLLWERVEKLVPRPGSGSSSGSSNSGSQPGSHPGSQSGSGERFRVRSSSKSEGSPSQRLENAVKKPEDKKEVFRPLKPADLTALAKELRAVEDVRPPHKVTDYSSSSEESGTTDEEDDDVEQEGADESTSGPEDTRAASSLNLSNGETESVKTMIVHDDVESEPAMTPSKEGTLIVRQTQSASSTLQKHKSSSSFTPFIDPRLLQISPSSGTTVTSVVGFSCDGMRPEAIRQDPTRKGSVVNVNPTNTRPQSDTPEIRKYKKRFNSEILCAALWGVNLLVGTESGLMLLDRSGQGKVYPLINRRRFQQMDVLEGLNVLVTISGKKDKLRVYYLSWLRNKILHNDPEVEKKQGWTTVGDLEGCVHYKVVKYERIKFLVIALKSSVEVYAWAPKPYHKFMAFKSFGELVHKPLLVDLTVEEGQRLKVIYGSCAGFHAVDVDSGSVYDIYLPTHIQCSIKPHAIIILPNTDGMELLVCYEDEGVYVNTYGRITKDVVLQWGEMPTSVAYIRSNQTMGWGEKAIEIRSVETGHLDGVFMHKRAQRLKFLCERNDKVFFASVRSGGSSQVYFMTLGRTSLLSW
UniProt Q99759: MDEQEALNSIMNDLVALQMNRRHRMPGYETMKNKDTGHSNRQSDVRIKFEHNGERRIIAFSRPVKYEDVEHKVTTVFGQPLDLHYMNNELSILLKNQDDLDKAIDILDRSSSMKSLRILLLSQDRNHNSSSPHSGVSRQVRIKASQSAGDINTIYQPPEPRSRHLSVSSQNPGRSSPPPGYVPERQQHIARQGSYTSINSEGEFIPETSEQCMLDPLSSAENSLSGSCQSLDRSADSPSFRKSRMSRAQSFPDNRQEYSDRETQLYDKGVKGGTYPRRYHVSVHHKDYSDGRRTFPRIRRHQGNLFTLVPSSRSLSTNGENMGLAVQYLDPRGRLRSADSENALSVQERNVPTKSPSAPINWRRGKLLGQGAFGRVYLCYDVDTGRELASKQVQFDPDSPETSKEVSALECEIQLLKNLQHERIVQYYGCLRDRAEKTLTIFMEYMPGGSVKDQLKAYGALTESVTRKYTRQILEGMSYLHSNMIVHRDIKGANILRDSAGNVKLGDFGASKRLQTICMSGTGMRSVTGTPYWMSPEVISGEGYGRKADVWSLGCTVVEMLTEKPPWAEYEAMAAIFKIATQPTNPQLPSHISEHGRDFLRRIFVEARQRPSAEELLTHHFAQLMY

Assays:
Assay in all cases: log2 fold change, soluble protein after heating vs DMSO (PISA); higher = thermal stabilisation; K562 cells, 10 uM, 30 min; active = over 0.2 and 3.5 SD of the protein, either way, in both replicates (recomputed)
[1] = compound: CS(=O)(=O)c1ccc(-c2cnc(N)c(C(=O)Nc3ccccc3)n2)cc1
Method in brief: (§1)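 K562 cells at 2×10^6 cells/mL were treated with 10 μM compound for 30 min. Aliquots were heated for 3 min across 48°C-58°C, pooled, and extracted in PBS with 0.5% NP-40 at 4°C; soluble protein was the supernatant after 21,000xg for 90 min. Soluble protein was quantified by TMTpro 16plex LC-MS/MS with channel sums equalised, and reported as log2 fold change in thermal stability against DMSO controls, with values from duplicates.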

crizotinib = compound: C[C@@H](Oc1cc(-c2cnn(C3CCNCC3)c2)cnc1N)c1c(Cl)ccc(F)c1Cl [crizotinib]
Method in brief: as §1

[2] = compound: C[C@@H]1COCCN1C2=NC(=NC(=C2)C3(CC3)S(=O)(=O)C)C4=C5C=CNC5=CC=C4
Method in brief: as §1

[3] = compound: C[C@H](C1=CC=C(C=C1)C(=O)NC2=C3C=CNC3=NC=C2)N
Method in brief: as §1

gandotinib = compound: Cc1cc(Nc2cc(CN3CCOCC3)c3nc(C)c(Cc4ccc(Cl)cc4F)n3n2)n[nH]1 [gandotinib]
Method in brief: as §1

[4] = compound: Cc1cc(SCc2sc(-c3ccc(C(F)(F)F)cc3)nc2C)ccc1OCC(=O)O
Method in brief: as §1

doramapimod = compound: Cc1ccc(-n2nc(C(C)(C)C)cc2NC(=O)Nc2ccc(OCCN3CCOCC3)c3ccccc23)cc1 [doramapimod]
Method in brief: as §1

ispinesib = compound: Cc1ccc(C(=O)N(CCCN)[C@@H](c2nc3cc(Cl)ccc3c(=O)n2Cc2ccccc2)C(C)C)cc1 [ispinesib]
Method in brief: as §1

bafetinib = compound: Cc1ccc(NC(=O)c2ccc(CN3CC[C@H](N(C)C)C3)c(C(F)(F)F)c2)cc1Nc1nccc(-c2cncnc2)n1 [bafetinib]
Method in brief: as §1

[5] = compound: Cc1cccc(CC(=O)N2CCc3c2ccc(-c2cn(C)c4ncnc(N)c24)c3F)n1
Method in brief: as §1

nilotinib = compound: Cc1cn(-c2cc(NC(=O)c3ccc(C)c(Nc4nccc(-c5cccnc5)n4)c3)cc(C(F)(F)F)c2)cn1 [nilotinib]
Method in brief: as §1

[6] = compound: Cc1nc(Nc2n[nH]c3c2CN(C(=O)N[C@H](CN(C)C)c2ccccc2)C3(C)C)c2sccc2n1
Method in brief: as §1

dasatinib = compound: Cc1nc(Nc2ncc(C(=O)Nc3c(C)cccc3Cl)s2)cc(N2CCN(CCO)CC2)n1 [dasatinib]
Method in brief: as §1

[7] = compound: Cc1ncc(-c2ccnc(Nc3ccc(S(C)(=O)=O)cc3)n2)n1C(C)C
Method in brief: as §1

[8] = compound: Cn1cc(-c2ccc3c(c2)CCN3C(=O)Cc2cccc(C(F)(F)F)c2)c2c(N)ncnc21
Method in brief: as §1

[9] = compound: Cn1cc(-c2ccc3nnc(C(F)(F)c4ccc5ncccc5c4)n3n2)cn1
Method in brief: as §1

tipifarnib = compound: Cn1cncc1[C@@](N)(c1ccc(Cl)cc1)c1ccc2c(c1)c(-c1cccc(Cl)c1)cc(=O)n2C [tipifarnib]
Method in brief: as §1

mubritinib = compound: FC(F)(F)c1ccc(/C=C/c2nc(COc3ccc(CCCCn4ccnn4)cc3)co2)cc1 [mubritinib]
Method in brief: as §1

duvelisib = compound: C[C@H](Nc1ncnc2nc[nH]c12)c1cc2cccc(Cl)c2c(=O)n1-c1ccccc1 [duvelisib]
Method in brief: as §1

tozasertib = compound: Cc1cc(Nc2cc(N3CCN(C)CC3)nc(Sc3ccc(NC(=O)C4CC4)cc3)n2)n[nH]1 [tozasertib]
Method in brief: as §1

Target | log2 fold change [1] | log2 fold change (crizotinib) | log2 fold change [2] | log2 fold change [3] | log2 fold change (gandotinib) | log2 fold change [4] | log2 fold change (doramapimod) | log2 fold change (ispinesib) | log2 fold change (bafetinib) | log2 fold change [5] | log2 fold change (nilotinib) | log2 fold change [6] | log2 fold change (dasatinib) | log2 fold change [7] | log2 fold change [8] | log2 fold change [9] | log2 fold change (tipifarnib) | log2 fold change (mubritinib) | log2 fold change (duvelisib) | log2 fold change (tozasertib)
MAGEC2 (UniProt Q9UBF1) | inactive: 0.008 | inactive: 0.049 | inactive: 0.009 | inactive: 0.081 | inactive: 0.055 | inactive: -0.036 | inactive: -0.036 | inactive: -0.012 | inactive: -0.024 | inactive: -0.065 | inactive: -0.02 | inactive: 0.021 | inactive: 0.059 | inactive: 0 | inactive: -0.056 | inactive: -0.07 | inactive: -0.02 | inactive: -0.015 | – | –
LUC7L (UniProt Q9NQ29) | inactive: -0.009 | inactive: -0.028 | inactive: -0.033 | inactive: -0.001 | inactive: 0.199 | inactive: 0.033 | inactive: 0.029 | inactive: -0.007 | inactive: 0.057 | inactive: -0.046 | inactive: 0.049 | active: -1.71 | inactive: 0.062 | inactive: 0.109 | inactive: -0.095 | inactive: -0.054 | inactive: 0.049 | inactive: -0.099 | – | –
MAD2L1BP isoform 3 (UniProt Q15013) | inactive: 0.013 | inactive: -0.027 | inactive: 0.076 | inactive: -0.072 | – | inactive: 0.061 | inactive: -0.011 | inactive: 0.063 | inactive: 0.013 | – | inactive: -0.056 | inactive: -0.067 | inactive: -0.034 | inactive: -0.013 | inactive: 0.029 | inactive: -0.065 | inactive: -0.045 | inactive: 0.069 | inactive: -0.026 | inactive: -0.062
MAP3K4 isoform 2 (UniProt Q9Y6R4) | inactive: 0.012 | active: -0.256 | inactive: 0.042 | inactive: -0.017 | inactive: -0.054 | inactive: 0 | inactive: 0.02 | inactive: 0.021 | inactive: -0.059 | inactive: -0.095 | inactive: 0.008 | active: 0.221 | active: 0.534 | inactive: 0.027 | inactive: -0.031 | inactive: 0.021 | inactive: -0.032 | inactive: 0.016 | – | –
MAP2K7 isoform 4 (UniProt O14733) | inactive: 0.017 | inactive: -0.112 | inactive: 0.003 | inactive: -0.003 | inactive: -0.055 | inactive: -0.038 | inactive: 0 | inactive: -0.051 | inactive: -0.086 | inactive: 0 | inactive: -0.035 | inactive: 0.025 | inactive: -0.075 | inactive: -0.039 | inactive: -0.006 | inactive: 0.02 | inactive: 0.027 | inactive: -0.018 | – | –
MARCKS (UniProt P29966) | inactive: 0.022 | inactive: 0.198 | inactive: -0.042 | inactive: -0.191 | inactive: 0.234 | inactive: 0.025 | inactive: 0 | inactive: -0.031 | inactive: -0.102 | inactive: -0.133 | inactive: 0.053 | inactive: -0.003 | inactive: 0.022 | inactive: -0.007 | inactive: 0.033 | inactive: 0.034 | inactive: -0.002 | inactive: -0.017 | – | –
LSR (UniProt Q86X29) | inactive: 0.08 | inactive: 0.043 | inactive: 0.009 | inactive: -0.025 | inactive: -0.012 | inactive: -0.031 | inactive: 0.04 | inactive: 0.027 | inactive: 0.068 | inactive: -0.057 | inactive: 0.024 | active: -0.254 | inactive: 0.003 | inactive: 0.009 | inactive: 0.072 | inactive: 0.018 | inactive: 0.011 | inactive: 0.01 | – | –
LUM (UniProt P51884) | inactive: -0.011 | inactive: 0.352 | inactive: -0.146 | inactive: 0.217 | – | inactive: -0.135 | inactive: 0.168 | inactive: -0.007 | – | – | inactive: 0.449 | inactive: 0.036 | inactive: 0.002 | inactive: 0.257 | inactive: 0.177 | inactive: -0.075 | inactive: 0.055 | – | – | –
MAP4K4 isoform 3 (UniProt O95819) | inactive: -0.058 | – | inactive: 0.002 | inactive: -0.055 | inactive: 0.311 | inactive: 0.017 | inactive: -0.156 | inactive: -0.05 | inactive: -0.068 | inactive: 0.029 | inactive: -0.038 | inactive: -0.094 | inactive: -0.162 | inactive: -0.09 | inactive: -0.024 | inactive: 0.038 | inactive: -0.027 | inactive: 0.021 | – | –
MAP3K3 isoform 2 (UniProt Q99759) | inactive: 0.053 | – | inactive: -0.062 | inactive: 0.005 | inactive: 0.138 | inactive: 0.072 | – | inactive: -0.002 | – | inactive: -0.012 | inactive: 0.003 | inactive: -0.17 | inactive: -0.307 | inactive: -0.069 | inactive: 0.02 | inactive: 0.022 | – | inactive: 0.075 | inactive: 0.014 | inactive: -0.027
MAP2K1 (UniProt Q02750) | inactive: 0.055 | inactive: -0.019 | inactive: 0.088 | inactive: -0.092 | inactive: 0.005 | inactive: -0.038 | inactive: -0.05 | inactive: -0.009 | inactive: -0.026 | inactive: -0.039 | inactive: -0.015 | inactive: -0.052 | inactive: -0.063 | inactive: 0.008 | inactive: 0.023 | inactive: 0.021 | inactive: -0.024 | inactive: 0.015 | – | –
LSR (UniProt M0QZL9) | inactive: -0.03 | – | inactive: 0.118 | – | – | – | – | – | – | – | – | – | – | – | – | – | – | – | – | –
